We go through two molecules from paper PMC4225224.

Sequences of proteins named here, by UniProt entry; tags and fusion partners are left off.
UniProt Q00987: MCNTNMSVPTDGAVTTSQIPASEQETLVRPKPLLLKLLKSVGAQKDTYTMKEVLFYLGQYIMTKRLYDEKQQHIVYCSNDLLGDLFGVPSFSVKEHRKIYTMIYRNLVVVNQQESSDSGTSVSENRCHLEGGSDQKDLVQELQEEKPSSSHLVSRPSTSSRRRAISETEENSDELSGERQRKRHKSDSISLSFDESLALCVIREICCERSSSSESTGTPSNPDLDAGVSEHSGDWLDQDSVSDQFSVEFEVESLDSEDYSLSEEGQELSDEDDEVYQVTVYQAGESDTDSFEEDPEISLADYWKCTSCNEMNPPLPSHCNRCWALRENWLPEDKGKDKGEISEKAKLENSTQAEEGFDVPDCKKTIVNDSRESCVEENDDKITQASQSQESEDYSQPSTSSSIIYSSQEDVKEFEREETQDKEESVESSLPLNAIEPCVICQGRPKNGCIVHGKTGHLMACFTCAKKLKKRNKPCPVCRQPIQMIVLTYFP

These are yes or no findings as the source states them, for the method shown. In cells and extracts the contact can be indirect. Some entries that bind do so weakly or less than the wild type. For part of these data: Sequences can lack the tags named with a protein.

For experiment [1], the target named is Homeodomain-interacting protein kinase 2 (endogenous) (human (endogenous in HCT116)) (UniProt Q9H2X6). Put plainly: co-IP; HCT116 total cell extracts, untreated or treated 24 h with 2 uM ADR; immunoprecipitated with anti-HIPK2 antibody, western blot; lysis buffer 50 mM Tris-HCl pH 7.4, 250 mM NaCl, 0.1% Triton, 5 mM EDTA, 25 mM NaF, 4 °C.
The target in experiment [2] is HDM2/MDM2 human double minute 2, E3 ubiquitin protein ligase (endogenous) (human (endogenous in HCT116)) (UniProt Q00987). Nature of the experiment: co-IP; HCT116 cells transiently transfected with GFP-HIPK2 or GFP-K221R and treated with ADR; total cell extracts immunoprecipitated with anti-HDM2 (anti-MDM2) antibody, western blot. (In western blotting, separated proteins are transferred to a membrane and probed.)

The target in another experiment is T1, Myc-tagged Che-1 (UniProt Q9NY61).
T1 sequence: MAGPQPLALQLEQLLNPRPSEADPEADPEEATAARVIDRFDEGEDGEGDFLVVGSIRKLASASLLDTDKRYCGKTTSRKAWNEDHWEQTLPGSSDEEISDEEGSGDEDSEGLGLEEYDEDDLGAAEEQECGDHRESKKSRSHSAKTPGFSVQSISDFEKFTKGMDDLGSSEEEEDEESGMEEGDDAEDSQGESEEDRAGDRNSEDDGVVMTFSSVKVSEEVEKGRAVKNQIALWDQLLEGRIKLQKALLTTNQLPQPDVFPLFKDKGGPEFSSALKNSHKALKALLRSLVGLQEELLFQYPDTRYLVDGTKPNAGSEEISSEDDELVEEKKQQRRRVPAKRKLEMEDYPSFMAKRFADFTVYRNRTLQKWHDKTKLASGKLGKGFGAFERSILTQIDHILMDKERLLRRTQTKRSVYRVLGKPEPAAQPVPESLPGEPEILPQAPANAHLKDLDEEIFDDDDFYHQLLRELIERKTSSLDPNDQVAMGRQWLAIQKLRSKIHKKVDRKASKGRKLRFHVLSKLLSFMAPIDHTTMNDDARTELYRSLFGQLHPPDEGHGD
Nature of the experiment: co-IP; HCT116 cells transiently transfected with Myc-Che-1 (or its deletion mutants) and GFP-HIPK2 (or its deletion mutant); total cell extracts immunoprecipitated with anti-Myc antibody, western blot.

B1: Che-1/AATF (endogenous) (protein, UniProt Q9NY61 1-560)
chain: T1 sequence
For the molecule B1, the binding entry in experiment [1] and in experiment [2] was “binds” throughout.

B2: GFP-HIPK2 (1-838) (domain or fragment, UniProt Q9H2X6 1-838)
chain: MAPVYEGMASHVQVFSPHTLQSSAFCSVKKLKIEPSSNWDMTGYGSHSKVYSQSKNIPLSQPATTTVSTSLPVPNPSLPYEQTIVFPGSTGHIVVTSASSTSVTGQVLGGPHNLMRRSTVSLLDTYQKCGLKRKSEEIENTSSVQIIEEHPPMIQNNASGATVATATTSTATSKNSGSNSEGDYQLVQHEVLCSMTNTYEVLEFLGRGTFGQVVKCWKRGTNEIVAIKILKNHPSYARQGQIEVSILARLSTESADDYNFVRAYECFQHKNHTCLVFEMLEQNLYDFLKQNKFSPLPLKYIRPVLQQVATALMKLKSLGLIHADLKPENIMLVDPSRQPYRVKVIDFGSASHVSKAVCSTYLQSRYYRAPEIILGLPFCEAIDMWSLGCVIAELFLGWPLYPGASEYDQIRYISQTQGLPAEYLLSAGTKTTRFFNRDTDSPYPLWRLKTPDDHEAETGIKSKEARKYIFNCLDDMAQVNMTTDLEGSDMLVEKADRREFIDLLKKMLTIDADKRITPIETLNHPFVTMTHLLDFPHSTHVKSCFQNMEICKRRVNMYDTVNQSKTPFITHVAPSTSTNLTMTFNNQLTTVHNQAPSSTSATISLANPEVSILNYPSTLYQPSAASMAAVAQRSMPLQTGTAQICARPDPFQQALIVCPPGFQGLQASPSKHAGYSVRMENAVPIVTQAPGAQPLQIQPGLLAQQAWPSGTQQILLPPAWQQLTGVATHTSVQHATVIPETMAGTQQLADWRNTHAHGSHYNPIMQQPALLTGHVTLPAAQPLNVGVAHVMRQQPTSTTSSRKSKQHQSSVRNVSTCEVSSSQAISSPQRSKRVKENT
Take B2: in the experiment with Myc-tagged Che-1, the binding entry is reported as “binds”.
